{
  "sequences": {"note": "Chains of the proteins cited; added tags and fusions are not shown. Residues count along the entry.", "UniProt P05067, residues 672-713": "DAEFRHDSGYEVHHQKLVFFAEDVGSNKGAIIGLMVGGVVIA"},
  "source": "patent US20090155249A1",
  "binders": {"B1": {"name": "chimeric antibody C2 ChVH AF/ChVK (antibody, V domains shown)", "VH": "EVQLVESGGGLVQPGGSLKLSCAASGFTFSSYGMSWVRQTPDKRLELVASINSNGGSTYYPDSVKGRFTISRDNAKNTLYLQMSSLKSEDTAMYYCASGDYWGQGSTLTVSS", "VL": "DVVMTQTPLSLPVSLGDQASISCRSSQSLVYSNGDTYLHWYLQKPGQSPKLLIYKVSNRFSGVPDRFSGSGSGTDFTLKISRVEAEDLGVYFCSQSTHVPWTFGGGTKLEIKR"}, "B2": {"name": "VK-S antibody (mC2 VK-S combined with chimeric C2 VH) (antibody, V domains shown)", "VH": "B1 VH", "VL": "DVVMTQTPLSLPVSLGDQASISCRSSQSLVYSNGDTYLHWYLQKPGQSPKLLIYKVSSRFSGVPDRFSGSGSGTDFTLKISRVEAEDLGVYFCSQSTHVPWTFGGGTKLEIK"}, "B3": {"name": "humanized antibody C2HuVH4/HuVK2 (antibody, human IgG4 S228P, kappa, V domains shown)", "VH": "EVQLVESGGGLVQPGGSLRLSCAASGFTFSSYGMSWVRQAPGKGLELVASINSNGGSTYYPDSVKGRFTISRDNAKNSLYLQMNSLRAEDTAVYYCASGDYWGQGTTVTVSS", "VL": "B1 VL with V2I, T7S, S14T, L15P, D17E, Q18P, K50Q, L88V, G105Q, L109V"}, "B4": {"name": "VK-R antibody (mC2 VK-R combined with chimeric C2 VH) (antibody, V domains shown)", "VH": "B1 VH", "VL": "B2 VL with K55R, S58N"}},
  "key": {"[1]": {"biological_target": "Amyloid Beta (antigen of the Amyloid Beta ELISA) (UniProt P05067)", "assay": "Amyloid Beta ELISA, A405"}, "[2]": {"biological_target": "Amyloid Beta (antigen of the Amyloid Beta ELISA) (UniProt P05067)", "assay": "Amyloid Beta ELISA, antibody purified from stable NS0 cell lines"}, "[3]": {"biological_target": "Amyloid Beta (antigen of the Amyloid Beta ELISA) (UniProt P05067)", "assay": "Amyloid Beta ELISA, conditioned medium from transient transfection"}, "[4]": {"biological_target": "Amyloid Beta (antigen of the Amyloid Beta ELISA) (UniProt P05067)", "assay": "Amyloid Beta ELISA, purified antibodies, A405"}, "[5]": {"biological_target": "amyloid plaques in brain sections of AD patients (human) (UniProt P05067)", "assay": "immunohistochemistry, paraffin sections of human brain pretreated with formic acid"}, "[6]": {"biological_target": "Amyloid Beta (antigen of the Amyloid Beta ELISA) (UniProt P05067)", "assay": "Amyloid Beta ELISA, conditioned medium from transient transfection, A405"}, "[7]": {"biological_target": "Amyloid Beta (antigen of the Amyloid Beta ELISA) (UniProt P05067)", "assay": "Amyloid Beta ELISA, purified antibodies"}},
  "note": "Residue numbers refer to the chain shown, from its start. Results are given in words; binding and its absence hold for the method and conditions named. Some results given as binding are weak or reduced against the parent protein; the word gives no strength.",
  "data": [
    {"binder": "B1", "values": [
      {"measurement": "binding", "setting": "[1]", "value": "binds"},
      {"measurement": "binding", "setting": "[2]", "value": "binds"},
      {"measurement": "binding", "setting": "[3]", "value": "binds"},
      {"measurement": "binding", "setting": "[4]", "value": "binds"},
      {"measurement": "binding", "setting": "[5]", "value": "binds"}
    ]},
    {"binder": "B2", "values": [
      {"measurement": "binding", "setting": "[6]", "value": "binds"},
      {"measurement": "binding", "setting": "[3]", "value": "binds"}
    ]},
    {"binder": "B3", "values": [
      {"measurement": "binding", "setting": "[4]", "value": "binds"},
      {"measurement": "binding", "setting": "[7]", "value": "binds"}
    ]},
    {"binder": "B4", "values": [
      {"measurement": "binding", "setting": "[6]", "value": "binds"},
      {"measurement": "binding", "setting": "[3]", "value": "binds"}
    ]}
  ]
}
